# Data: PubChem BioAssay AID911 (National Center for Advancing Translational Sciences (NCATS), 2007)
# Protein sequences, listed by entry. Tags and fused reporters are not part of them.
# UniProt P10636, whole entry, looked up: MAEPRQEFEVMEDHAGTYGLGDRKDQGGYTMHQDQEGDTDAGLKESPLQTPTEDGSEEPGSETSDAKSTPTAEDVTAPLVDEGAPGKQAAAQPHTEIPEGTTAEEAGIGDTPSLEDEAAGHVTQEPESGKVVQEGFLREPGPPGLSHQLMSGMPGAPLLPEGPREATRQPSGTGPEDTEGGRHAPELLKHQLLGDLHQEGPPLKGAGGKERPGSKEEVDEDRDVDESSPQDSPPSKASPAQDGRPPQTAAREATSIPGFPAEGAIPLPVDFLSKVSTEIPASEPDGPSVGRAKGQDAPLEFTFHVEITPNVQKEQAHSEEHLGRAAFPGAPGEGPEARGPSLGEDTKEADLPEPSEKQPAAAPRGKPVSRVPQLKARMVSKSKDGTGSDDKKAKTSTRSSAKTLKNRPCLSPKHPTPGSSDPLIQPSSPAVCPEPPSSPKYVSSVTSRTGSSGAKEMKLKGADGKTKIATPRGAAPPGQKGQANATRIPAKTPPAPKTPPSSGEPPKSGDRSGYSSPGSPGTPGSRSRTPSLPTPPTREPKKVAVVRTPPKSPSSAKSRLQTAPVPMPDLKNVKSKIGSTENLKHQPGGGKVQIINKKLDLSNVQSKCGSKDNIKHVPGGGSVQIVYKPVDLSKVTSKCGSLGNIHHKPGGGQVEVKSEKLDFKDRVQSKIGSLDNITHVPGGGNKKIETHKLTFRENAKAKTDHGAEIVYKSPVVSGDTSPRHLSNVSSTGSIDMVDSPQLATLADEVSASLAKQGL
# This list was built around the results that the source calls inconclusive (neither active nor inactive); the mix of calls is not that of the screen. Where the call is inconclusive, the potency comes from a doubtful curve fit. Activity calls are given as the source filed them. The call rests on the fitted dose curve.
# Target: Microtubule-associated protein tau (Homo sapiens) (UniProt P10636)
# Test: Tau ThS binding assay
# Settings: recombinant tau filaments, Thioflavin S fluorescence displacement
# Text: NIH Molecular Libraries Screening Centers Network [MLSCN] NIH Chemical Genomics Center [NCGC] MLSCN Grant: 1 X01 MH079825-01 Assay Provider: Jeffrey A. Kuret, Ohio State University NCGC Assay Overview: This assay is a confirmation study for the qHTS Assay for Tau Filament Binding (PubChem AID 596). Tau monomers form filaments in vitro in the presence of arachidonic acid. The dye Thioflavine S (ThS) binds to tau filaments and upon binding, increases in fluorescence several fold. Small molecules that displace ThS binding or prevent filament binding are identified by a reduction in ThS fluorescence.
# NCGC Assay Protocol Summary The assay was performed in 96-well round bottom opaque plates (VWR, West Chester, PA) in 100 uL final volume. Recombinant His6-htau40 was diluted to 5 uM in assembly buffer (10 mM HEPES, pH 7.4, 100 mM NaCl, 5 mM dithiothreitol) containing 50 uM arachidonic acid inducer. ThS probe was then added to a final concentration of 10 uM with test compounds assayed at nine 3-fold dilutions beginning at 10 uM final concentration. Each compound was tested at least twice in separate assays. Controls without protein or without compound were included on each plate. After shaking 2 min to promote mixing, plates were covered with self-adhesive aluminum foil and incubated overnight at 37 C. Fluorescence (ex = 440 nm; em = 485 nm) was measured after brief shaking (10 s) in a FlexStation plate reader (Molecular Devices, Sunnyvale, CA) operated at sensitivity 10, automatic PMT. […] 28(3), 251-60.
SMILES,Potency,outcome
C=CCOC(=O)C(C#N)c1nc2ccccc2nc1N1CCN(c2ccccc2OC)CC1 (stereo unspecified),active: 4.01 µM,
CN(C)c1ccc(C(=C2C=CC(=[N+](C)C)C=C2)c2c(O)c(S(=O)(=O)O)cc3cc(S(=O)(=O)O)ccc23)cc1,inconclusive: 62.8 µM,
Cc1cc(C(=O)Nc2ccc(N3CCOCC3)cc2)c2ccccc2n1,,inactive
c1cc2c3c(cccc3c1)NC1(CCCCCC1)N2,inconclusive: 13.5 µM,
Nc1ccc(O)c(-c2nc3ccccc3s2)c1,inconclusive: 16.4 µM,
COc1ccc2c(c1)C(=NO)c1cc(OC)ccc1-2,inconclusive: 11.4 µM,
O=C(C1CCCN(S(=O)(=O)c2cccc3nonc23)C1)N1CCC(Cc2ccccc2)CC1 (stereo unspecified),inconclusive: 43.2 µM,
CCCCOc1ccc(C(=O)Nc2ccc(N3CCN(C)CC3)cc2)cc1,inconclusive: 16 µM,
CCOC(=O)N1CCc2c(sc3c2C(=O)NC(c2ccc(-c4ccc(Cl)cc4)o2)N3)C1 (stereo unspecified),,inactive
CCOC(=O)C1CCN(S(=O)(=O)c2cccc3nonc23)CC1,,inactive
N=c1c(C(=O)NCc2ccc3c(c2)OCO3)cc2c(=O)n3ccccc3nc2n1Cc1cccnc1,inconclusive: 32.4 µM,
Cn1c(=Nc2ccc(N3CCOCC3)cc2)ccc2ccccc21,inconclusive: 95.2 µM,
COc1cc(N[C@@H](C)CCCN)c2ncccc2c1,,inactive
CC(=O)c1ccc2c(c1)Nc1ccccc1S2,active: 7.73 µM,
Cc1ccccc1Cn1ccc(NC(=O)c2cnn3c(C(F)(F)F)cc(-c4ccco4)nc23)n1,inconclusive: 46.2 µM,
Cc1cc(NC(=O)c2cc3nc(C4CC4)cc(C(F)(F)F)n3n2)no1,inconclusive: 59.8 µM,

# Two entries picked at random from those above, as already listed:
SMILES,Potency,outcome
CCOC(=O)C1CCN(S(=O)(=O)c2cccc3nonc23)CC1,,inactive
c1cc2c3c(cccc3c1)NC1(CCCCCC1)N2,inconclusive: 13.5 µM,
